Patent publication US20040253723A1
Results are given in words; binding and its absence hold for the method and conditions named. Some binding calls cover weakened binding; strength is not graded here.

Protein sequences, listed by entry. Tags and fused reporters are not part of them. Residues count along the entry.
UniProt P01241, residues 27-217: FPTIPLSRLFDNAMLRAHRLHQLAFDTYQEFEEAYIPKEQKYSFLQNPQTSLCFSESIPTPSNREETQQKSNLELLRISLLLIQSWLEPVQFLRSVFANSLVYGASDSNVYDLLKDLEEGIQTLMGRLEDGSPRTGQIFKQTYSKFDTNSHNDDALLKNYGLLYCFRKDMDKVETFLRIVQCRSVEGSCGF

Molecular target: T1, mouse growth hormone receptor (liver microsomal membrane preparation) (mouse) (UniProt P16882)
T1 sequence (looked up): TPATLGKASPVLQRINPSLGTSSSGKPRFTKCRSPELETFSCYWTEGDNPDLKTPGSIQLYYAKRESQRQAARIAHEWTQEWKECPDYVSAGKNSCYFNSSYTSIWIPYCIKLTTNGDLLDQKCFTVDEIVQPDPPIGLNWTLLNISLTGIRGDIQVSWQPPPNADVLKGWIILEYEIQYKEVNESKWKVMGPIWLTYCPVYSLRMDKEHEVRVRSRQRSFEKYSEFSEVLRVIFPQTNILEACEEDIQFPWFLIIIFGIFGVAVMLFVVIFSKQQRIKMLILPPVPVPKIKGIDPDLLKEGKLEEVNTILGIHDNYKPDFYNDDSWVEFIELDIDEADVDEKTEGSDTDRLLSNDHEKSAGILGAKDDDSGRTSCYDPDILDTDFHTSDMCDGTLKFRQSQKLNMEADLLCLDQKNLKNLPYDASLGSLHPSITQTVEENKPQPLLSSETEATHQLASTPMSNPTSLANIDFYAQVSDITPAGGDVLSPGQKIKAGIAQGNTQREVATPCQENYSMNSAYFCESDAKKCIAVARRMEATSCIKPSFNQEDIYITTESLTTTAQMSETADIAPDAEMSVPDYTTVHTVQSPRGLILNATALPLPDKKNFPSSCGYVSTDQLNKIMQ
Test: [125I]-hGH specific binding to mouse liver microsomal membranes, pellets counted in a gamma counter

binding: binds
Substance: iodinated human growth hormone [^125 I] hGH (from UniProt P01241 27-217) (ligand)
